Experimental data from patent publication US6500927B2 (priority 1998, dated 2002).
No constants are given. Whether binding was seen depends on the method and setting. Some results given as binding are weak or reduced against the parent protein; the word gives no strength.

Experiments:
Experiment in all cases: competition with ^3H-DAMGO, CHO cell membranes
[1] = target: MOR-1E splice variant of the mu-opioid receptor-1 (mouse) (UniProt P42866)
[2] = target: MOR-1C splice variant of the mu-opioid receptor-1 (mouse)
[3] = target: MOR-1 (mu-opioid receptor-1, full length) (mouse) (UniProt P42866)
[4] = target: MOR-1D splice variant of the mu-opioid receptor-1 (mouse) (UniProt P42866)

Measured: binding

dynorphin A (from UniProt P01213 207-223) (peptide)
binds: [1] | [2] | [3] | [4]
